± gives the half width of the 95% confidence interval. For many entries, trypsin and chymotrypsin gave values far apart.
Assays:
[1] = folding stability dG unfold from chymotrypsin proteolysis; higher = more stable
Protocol: (§1)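 Folding stability of de novo designed mini-proteins (<80 aa, no Cys; designed by TrROS, TrMRF, ProteinMPNN and the joint model) was measured by cDNA display proteolysis with trypsin and chymotrypsin. Each protease was used at 11 concentrations in a threefold dilution series plus a no-protease condition. K50 was inferred by Bayesian fitting of sequencing counts, and dG unfold was derived against a sequence-predicted unfolded-state K50 (Tsuboyama et al. method). Sequences shown include variable-length N-terminal GS-type padding (SAGGSAGG...) inside a display construct carrying a PA tag. Rows were kept only if the AF2 dimer inter-PAE was >15, to exclude likely homo-oligomers.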

[2] = folding stability dG unfold (combined trypsin and chymotrypsin); higher = more stable
Protocol: as §1

## SAGMVLRADSLEEARALAEELGVPYVFGRDPDADVAFLLRFGDGELDPVVTVPLDDPAAVALLRALGAESAG [r5_458_JUSTAS]
[1]
  folding stability dG unfold: 1.34 ± 0.18 kcal/mol
[2]
  folding stability dG unfold: 0.689 ± 0.12 kcal/mol

## SAGGGMKVTVTVPVPNDPQEAEALRAALEAEVGGAVEVTVEPGRNTATFTVDEAVLPVLRARGLPVAPSAGG [r13_156_JUSTAS]
[1]
  folding stability dG unfold: 1.06 ± 0.072 kcal/mol
[2]
  folding stability dG unfold: 0.48 ± 0.22 kcal/mol

## SAGGSAGGSAGGGTSTTRTDPETGVTTTTETTSTPTTTTTTTTLDPATNTATTTTTTTPASAGGSAGGSAGG [r7_760_JUSTAS]
[1]
  folding stability dG unfold: 1.57 ± 0.07 kcal/mol
[2]
  folding stability dG unfold: 1.13 ± 0.12 kcal/mol

## SAGGSAGGSAGGDEPEDVPVLDIEVDLPPELRNNPELAGEAAVERAKPLEEEGLLGTVASAGGSAGGSAGGS [r10_723_TrMRF]
[1]
  folding stability dG unfold: 1.09 ± 0.035 kcal/mol
[2]
  folding stability dG unfold: 0.59 ± 0.11 kcal/mol

## SAGSYLVEVTLTFPDGTVRRLTVRTTSADPEEARAAAEAAVAAEIAAAGVPVASVAVRLEPVPPDRLESAGG [r19_335_JUSTAS]
[1]
  folding stability dG unfold: 3.217 ± 0.011 kcal/mol
[2]
  folding stability dG unfold: 2.87 ± 0.039 kcal/mol

## SAGGSAGGAVSPEMQALAEAVRAALRAAFPDLPLEIRVVEITRFPDGSVTITVRVGDEELEVPVSAGGSAGG [r6_495_JUSTAS]
[1]
  folding stability dG unfold: 2.487 ± 0.017 kcal/mol
[2]
  folding stability dG unfold: 2.15 ± 0.042 kcal/mol

## SMKLIKLKFPGKSLEEVLKAAKELEETGKFEILSINDETEDIYIDIAYKPPKPPKPPKPKVVFDENGKEGSA [r9_830_TrMRF]
[1]
  folding stability dG unfold: 1.86 ± 0.11 kcal/mol
[2]
  folding stability dG unfold: 1.03 ± 0.3 kcal/mol

## SAGGSAGGSAAPPGVEVEVRVARLPGPGYLAVALLRVEGRPFLAVALYDAPPGRPLAVAVFASAGGSAGGSA [r18_459_TrMRF]
[1]
  folding stability dG unfold: 4.25 ± 0.059 kcal/mol
[2]
  folding stability dG unfold: 3.75 ± 0.23 kcal/mol

## SAGGSAGGSSATVGAAAPGTVVLTLHGDAPVTITVPPGRLEELARRLRELGADAEVDFAPALGSAGGSAGGS [r20_124_TrMRF]
[1]
  folding stability dG unfold: 1.84 ± 0.029 kcal/mol
[2]
  folding stability dG unfold: 1.33 ± 0.06 kcal/mol

## SAGGSAGGEMSEEEKKKLKEEEERLKKLKPKLVIVVKPGMSEEEKELAKELAEKLNVEVEIVVESAGGSAGG [r6_129_TrROS_Hall]
[1]
  folding stability dG unfold: 1.39 ± 0.18 kcal/mol
[2]
  folding stability dG unfold: 0.91 ± 0.25 kcal/mol

## SAGGSNIFIMIKFRPPDKKRTWTIPIRVRHPNGKPKPIPAEELKDILEELPGYPVKNVDVMPPDDISAGGSA [r2_192_TrROS]
[1]
  folding stability dG unfold: 3.25 ± 0.23 kcal/mol
[2]
  folding stability dG unfold: 3.8 ± 0.56 kcal/mol

## SAGGSAGGSAGGWRRLRLTLTDPAVDNVERELTLLLPIPLPPAPRPFPVTDADGNTGPVGSAGGSAGGSAGG [r11_419_TrMRF]
[1]
  folding stability dG unfold: 2.56 ± 0.066 kcal/mol
[2]
  folding stability dG unfold: 1.33 ± 0.12 kcal/mol

## SAGGSAGGSMTRTAKYESPEEAREDALAALPPGWSVTVTVSEGEGKLRFTITVTPPPADPAAASAGGSAGGS [r12_195_JUSTAS]
[1]
  folding stability dG unfold: 1.93 ± 0.059 kcal/mol
[2]
  folding stability dG unfold: 1.34 ± 0.13 kcal/mol

## SAGGSAGGSAASPGEVVTETVTTTETDPPSPTVRTVVTRLVRRPDGTVLERRPVSVTTDPAAASAGGSAGGS [r12_504_JUSTAS]
[1]
  folding stability dG unfold: 1.16 ± 0.13 kcal/mol
[2]
  folding stability dG unfold: 0.513 ± 0.19 kcal/mol

## SAGGSAGGSAAVEVPESAIVERDPSTGRLLVPAPSGVPIVVTVDPSDPARVSTSDPAAAAAGSAGGSAGGSA [r18_418_JUSTAS]
[1]
  folding stability dG unfold: 1.65 ± 0.032 kcal/mol
[2]
  folding stability dG unfold: 1.12 ± 0.091 kcal/mol

## SAGGSAGGSAGGSPNRQERDIPLNDGKIKIEVDPDNAHVEFPNGGEKTMPPEDLEEALQSAGGSAGGSAGGS [r4_242_TrROS]
[1]
  folding stability dG unfold: 1.12 ± 0.058 kcal/mol
[2]
  folding stability dG unfold: 0.551 ± 0.09 kcal/mol

## SSSIPRTRVEEDPEKKTTTTTEVTTTPLPNGTYETTTTTTTTTFSPSGGSTVTTTTTTTTHPSPSVPGLGSA [r9_305_JUSTAS]
[1]
  folding stability dG unfold: 1.24 ± 0.044 kcal/mol
[2]
  folding stability dG unfold: 0.769 ± 0.099 kcal/mol

## SAGGSAGGSAGGGELAKEAAEKARELGLGPDTEIEIFDPETGELVRVRILPETGGFEVEPSAGGSAGGSAGG [r7_301_TrMRF]
[1]
  folding stability dG unfold: 1.64 ± 0.067 kcal/mol
[2]
  folding stability dG unfold: 1.17 ± 0.094 kcal/mol

## SAGGSAGGSAGGSLIKRPLKLTVKLTFTDPENPSTPVETTERLDLYVLLEVPPVPPEHPSAGGSAGGSAGGS [r4_231_TrMRF]
[1]
  folding stability dG unfold: 2.807 ± 0.027 kcal/mol
[2]
  folding stability dG unfold: 2.04 ± 0.11 kcal/mol

## SAGGSAGGSDEVTYDPVAGTFTVRLRLPGGERTFRVPSLADLRAWLEREGLPWEDLPIERVEPSAGGSAGGS [r12_834_TrMRF]
[1]
  folding stability dG unfold: 2.35 ± 0.1 kcal/mol
[2]
  folding stability dG unfold: 1.73 ± 0.12 kcal/mol

## SAGGSAGGSDVIEVDFPDGVSIHMHPENDMVEVENPDNNKKRVIHPGKSPEEALDYIANGEPISAGGSAGGS [r12_832_TrROS]
[1]
  folding stability dG unfold: 1.04 ± 0.057 kcal/mol
[2]
  folding stability dG unfold: 0.433 ± 0.27 kcal/mol

## SAGGSAGGSAGMKKYLVTVTPPDGTTTTVTVPDDPAAAIAAARAAFPGATVTVTPLTEPASAGGSAGGSAGG [r11_850_JUSTAS]
[1]
  folding stability dG unfold: 1.4 ± 0.022 kcal/mol
[2]
  folding stability dG unfold: 0.937 ± 0.037 kcal/mol

## SGRVLEVRRRLAFFDPETGRLLGEVEVVVRVPPSATPEEVPRIARERELEAAERLLRPAPPRRLENGELLSA [r9_454_TrMRF]
[1]
  folding stability dG unfold: 1.56 ± 0.12 kcal/mol
[2]
  folding stability dG unfold: 1.1 ± 0.16 kcal/mol

## SAGGSAGGSAGGPVVTVEPPGGELKTLAVPPSHPAVLEELLASGGRVTVLDPETGEAFDVSAGGSAGGSAGG [r7_430_TrMRF]
[1]
  folding stability dG unfold: 1.02 ± 0.055 kcal/mol
[2]
  folding stability dG unfold: 0.164 ± 0.14 kcal/mol

## SPLRALTPEQLIERARFLVRQLRRAREAGRPEELPRLVAELARLVAEAPGPQRGAIRELLEELDIPPGLLSA [r9_182_TrMRF]
[1]
  folding stability dG unfold: 1.9 ± 0.074 kcal/mol
[2]
  folding stability dG unfold: 1.24 ± 0.049 kcal/mol

## SAGGSAGGSPGDNVYWRVKIEHPNGNEMTFPFPFKGDPEEAEEFADGLAEWNPNMKVTIEPVPSAGGSAGGS [r12_268_TrROS]
[1]
  folding stability dG unfold: 1.07 ± 0.095 kcal/mol
[2]
  folding stability dG unfold: 0.535 ± 0.095 kcal/mol

## SAGGSPVIRGPTLEDALEAARALAAALREAFPDRPDLVVEVRVELEDPETGTRREYTFTLVLPFPGSAGGSA [r2_393_TrMRF]
[1]
  folding stability dG unfold: 3.74 ± 0.051 kcal/mol
[2]
  folding stability dG unfold: 3.41 ± 0.11 kcal/mol

## SAGGSAGGSAGGSMTKTTYDPSGYTDLPDLPPDHTITVTTTVDPSGPSTVTVTVTVTPPSAGGSAGGSAGGS [r10_1233_JUSTAS]
[1]
  folding stability dG unfold: 1.6 ± 0.051 kcal/mol
[2]
  folding stability dG unfold: 1.05 ± 0.09 kcal/mol

## SAGGSAGGDLIDEALENMPPGQEVEIKVEAYLPDGMPGEDEIEVKVEPPKPPPSPEDRKERKDQSAGGSAGG [r6_893_TrROS]
[1]
  folding stability dG unfold: 1.34 ± 0.1 kcal/mol
[2]
  folding stability dG unfold: 0.667 ± 0.39 kcal/mol

## SAGGVDISPDETVEYEHPTAKITITRLPDGSLLVTVTDPATGEPITLPFPGGESIEEIIEKVKEALESAGGS [r8_158_JUSTAS]
[1]
  folding stability dG unfold: 2.91 ± 0.18 kcal/mol

## SAGPAAAVPELRELTLHLPVPGLPLPVVAALVAEELGWEVTSVEEGDDVFVFTVPDGVPIRVHLGVPGLSAG [r5_350_TrMRF]
[1]
  folding stability dG unfold: 1.39 ± 0.081 kcal/mol
[2]
  folding stability dG unfold: 0.849 ± 0.065 kcal/mol

## SAGGSAGGSAGGSNPFDPNAPAVTTTTVPKVIKTPTALVETTVTVTETPGGTTVTTTPISAGGSAGGSAGGS [r4_145_JUSTAS]
[1]
  folding stability dG unfold: 1.5 ± 0.039 kcal/mol
[2]
  folding stability dG unfold: 0.992 ± 0.083 kcal/mol

## SAGGSAGGSAGGMPELEVELLAVEPLPGQIRALFRVPDTDALLLATVDPETGEIRVEVGTSAGGSAGGSAGG [r7_163_TrMRF]
[1]
  folding stability dG unfold: 1.47 ± 0.067 kcal/mol
[2]
  folding stability dG unfold: 0.635 ± 0.1 kcal/mol

## SAGGSAGGSAGGSPEVERERVKRELEEAGIPLESIEVSTEPVEPGREVHVTVNPPPELPSAGGSAGGSAGGS [r10_1122_JUSTAS]
[1]
  folding stability dG unfold: 1.29 ± 0.14 kcal/mol
[2]
  folding stability dG unfold: 0.616 ± 0.13 kcal/mol

## SAGGEVEVRVEVRVEARPLPDGRVRVEVRVEVRLLRPPPRPVTPRDLLAAILRLLDPEIRPDDPRAILSAGG [r13_136_TrMRF]
[1]
  folding stability dG unfold: 2.29 ± 0.058 kcal/mol
[2]
  folding stability dG unfold: 1.79 ± 0.13 kcal/mol

## SMKTVELKIVIPGMTEEELKKLVEKLKELGNVEVTIEYDEETKEVVITVKVNVTPEQEEALKKALEEALKSA [r9_652_TrROS_Hall]
[1]
  folding stability dG unfold: 2.22 ± 0.21 kcal/mol
[2]
  folding stability dG unfold: 3.26 ± 0.63 kcal/mol

## SAALSLSPEEVAAAAAALAARGDVTVERREEAVTLEPPNGGSLPLGRVVLDVTDPAAGRPLAAEVAALASAG [r14_628_JUSTAS]
[1]
  folding stability dG unfold: 1.34 ± 0.11 kcal/mol
[2]
  folding stability dG unfold: 0.803 ± 0.085 kcal/mol

## SAGGPAFTVTEVTVTANPEAGTVTVTATFEDGAVATATVDPSTGRVPGRVLLPDALVDFEGTLDVPGSAGGS [r8_363_TrMRF]
[1]
  folding stability dG unfold: 1.46 ± 0.053 kcal/mol
[2]
  folding stability dG unfold: 0.959 ± 0.04 kcal/mol

## ATLTTPLPDGSVVTIDYREAPGGPRVFTITVTLPDGTEVTIPVTVDLASHPDVAPEDIAAAAAAAAVAALAS [r1_92_JUSTAS]
[1]
  folding stability dG unfold: 3.29 ± 0.059 kcal/mol
[2]
  folding stability dG unfold: 2.95 ± 0.13 kcal/mol

## SAGGSAGGSAGVIVPAGSVVRVRFPDGDEVEIPVANPFLEIEDAGDVEVEVTPGLRDSPVSAGGSAGGSAGG [r11_43_TrMRF]
[1]
  folding stability dG unfold: 1.13 ± 0.045 kcal/mol
[2]
  folding stability dG unfold: 0.567 ± 0.12 kcal/mol

## SETITLTLTIKVNGKTVKIELTIEKNEDGSYTLTVKIEVTNENGEKKEITITLEVPNMSLEEILKKLLESSA [r9_217_TrROS_Hall]
[2]
  folding stability dG unfold: > 6 kcal/mol

## SAGGSAIKITKVEYEPNPDGWREIHFKATPGDPDFLDEIAEALPPDNIEPTEVDEKGYYEIRIPRPSAGGSA [r15_386_TrROS]
[2]
  folding stability dG unfold: -0.291 ± 0.17 kcal/mol

From the supplement of paper PMC12764529
